No constants are given. Whether binding was seen depends on the method and setting. Binding seen in cells or lysates may run through a third protein. Some binding calls cover weakened binding; strength is not graded here. For part of these data: Tags and fused reporters may be left off the sequences shown.
What was measured:
[1] = biological target: Flag-tagged Gal-9 (galectin-9), wild type (UniProt O08573); test: co-IP; CMT93 cells, Western blot; also in β3gnt2 or β4galt1 gene-knockdown CMT93 cells (binding of Gal-9 to Lamp2 decreased)
[2] = biological target: Flag-tagged Gal-9 (galectin-9), wild type (UniProt O08573); test: co-IP; Lamp1/2-/- CMT93 cells stably reconstituted with Flag-tagged Gal-9 and V5-tagged Lamp2 or its mutants, Western blot

The chains behind the UniProt entries cited, without tags or fusion partners. Residues count along the entry.
UniProt O08573: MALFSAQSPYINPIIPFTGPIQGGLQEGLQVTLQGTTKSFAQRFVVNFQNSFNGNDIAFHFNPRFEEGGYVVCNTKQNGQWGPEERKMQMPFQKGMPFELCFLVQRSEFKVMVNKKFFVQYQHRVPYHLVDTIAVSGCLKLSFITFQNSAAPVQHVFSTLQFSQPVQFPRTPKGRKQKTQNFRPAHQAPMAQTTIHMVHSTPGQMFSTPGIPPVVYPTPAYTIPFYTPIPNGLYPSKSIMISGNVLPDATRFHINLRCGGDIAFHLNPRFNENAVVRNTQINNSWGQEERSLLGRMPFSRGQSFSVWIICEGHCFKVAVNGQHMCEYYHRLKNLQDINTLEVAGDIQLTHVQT
UniProt Q07113, residues 36-2483: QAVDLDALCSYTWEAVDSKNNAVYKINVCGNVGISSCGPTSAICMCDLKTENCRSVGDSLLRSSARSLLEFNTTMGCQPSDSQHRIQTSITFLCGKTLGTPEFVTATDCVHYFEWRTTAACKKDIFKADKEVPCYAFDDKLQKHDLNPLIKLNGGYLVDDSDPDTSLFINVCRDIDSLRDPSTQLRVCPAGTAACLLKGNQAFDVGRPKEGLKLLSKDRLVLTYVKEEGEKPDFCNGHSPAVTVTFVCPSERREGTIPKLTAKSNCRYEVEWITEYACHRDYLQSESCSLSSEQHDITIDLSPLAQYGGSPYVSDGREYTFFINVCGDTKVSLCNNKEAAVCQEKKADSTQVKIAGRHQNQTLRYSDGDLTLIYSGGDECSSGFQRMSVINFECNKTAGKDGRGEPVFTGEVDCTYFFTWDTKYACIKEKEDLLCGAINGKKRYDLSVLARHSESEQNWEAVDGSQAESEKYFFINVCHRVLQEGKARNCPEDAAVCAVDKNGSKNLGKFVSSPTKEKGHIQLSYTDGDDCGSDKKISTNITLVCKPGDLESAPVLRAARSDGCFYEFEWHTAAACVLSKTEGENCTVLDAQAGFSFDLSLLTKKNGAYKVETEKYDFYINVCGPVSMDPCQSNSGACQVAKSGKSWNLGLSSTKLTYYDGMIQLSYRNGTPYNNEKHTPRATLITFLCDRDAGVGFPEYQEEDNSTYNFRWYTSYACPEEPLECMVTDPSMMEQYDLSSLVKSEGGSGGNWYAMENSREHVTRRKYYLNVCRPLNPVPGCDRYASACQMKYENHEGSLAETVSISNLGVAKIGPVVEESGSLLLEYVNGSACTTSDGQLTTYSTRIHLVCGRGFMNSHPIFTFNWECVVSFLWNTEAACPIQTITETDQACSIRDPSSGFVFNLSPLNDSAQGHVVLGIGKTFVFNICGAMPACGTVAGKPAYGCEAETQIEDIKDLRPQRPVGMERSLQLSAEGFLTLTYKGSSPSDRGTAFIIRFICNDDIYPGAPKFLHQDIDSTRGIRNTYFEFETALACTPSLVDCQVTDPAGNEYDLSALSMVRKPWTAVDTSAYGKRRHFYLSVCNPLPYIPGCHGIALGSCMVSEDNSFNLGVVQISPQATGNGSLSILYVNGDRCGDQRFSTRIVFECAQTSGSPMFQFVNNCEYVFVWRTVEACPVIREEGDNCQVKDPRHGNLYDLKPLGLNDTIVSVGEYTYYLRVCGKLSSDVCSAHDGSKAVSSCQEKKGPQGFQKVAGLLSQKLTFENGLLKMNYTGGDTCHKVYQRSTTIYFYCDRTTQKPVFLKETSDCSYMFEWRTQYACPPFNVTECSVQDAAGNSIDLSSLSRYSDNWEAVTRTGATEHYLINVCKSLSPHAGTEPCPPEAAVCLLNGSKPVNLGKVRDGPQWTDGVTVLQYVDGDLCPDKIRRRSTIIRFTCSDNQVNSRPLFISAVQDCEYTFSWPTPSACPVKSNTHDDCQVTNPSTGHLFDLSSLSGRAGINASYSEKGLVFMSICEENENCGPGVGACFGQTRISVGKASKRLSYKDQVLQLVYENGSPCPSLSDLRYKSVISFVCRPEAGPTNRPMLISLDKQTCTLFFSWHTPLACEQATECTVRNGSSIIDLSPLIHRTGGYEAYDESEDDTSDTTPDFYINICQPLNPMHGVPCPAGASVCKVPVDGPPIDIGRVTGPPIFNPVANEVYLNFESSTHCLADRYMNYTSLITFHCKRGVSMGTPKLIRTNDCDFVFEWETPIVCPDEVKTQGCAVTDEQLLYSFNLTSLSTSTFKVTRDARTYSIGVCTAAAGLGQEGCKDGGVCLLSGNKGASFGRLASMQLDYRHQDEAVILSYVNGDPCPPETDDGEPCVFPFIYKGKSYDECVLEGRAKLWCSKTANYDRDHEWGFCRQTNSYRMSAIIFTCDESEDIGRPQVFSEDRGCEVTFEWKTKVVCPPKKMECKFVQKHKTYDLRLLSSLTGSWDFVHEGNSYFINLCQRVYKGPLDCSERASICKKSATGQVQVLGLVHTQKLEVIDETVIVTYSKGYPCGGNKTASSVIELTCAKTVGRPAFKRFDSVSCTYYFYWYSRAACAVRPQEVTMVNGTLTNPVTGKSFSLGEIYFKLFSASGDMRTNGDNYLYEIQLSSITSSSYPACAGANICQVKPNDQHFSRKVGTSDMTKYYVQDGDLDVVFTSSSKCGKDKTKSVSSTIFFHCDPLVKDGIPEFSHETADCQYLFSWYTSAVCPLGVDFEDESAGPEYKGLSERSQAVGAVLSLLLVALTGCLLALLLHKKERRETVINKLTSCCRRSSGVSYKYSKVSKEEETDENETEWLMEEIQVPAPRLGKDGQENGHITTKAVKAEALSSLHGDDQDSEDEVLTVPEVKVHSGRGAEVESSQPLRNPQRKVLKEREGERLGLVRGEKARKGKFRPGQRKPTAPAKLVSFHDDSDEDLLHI

binding [1]	binding [2]	Molecule
binds		Igf2r (Insulin-like growth factor 2 receptor or cation-independent mannose-6-phosphate receptor, CI-M6PR) (from UniProt Q07113 36-2483)
binds		lysosome-associated membrane protein 2 (Lamp2) (protein, UniProt P17047 26-415, N-glycosylated (poly-LacNAc)) LIVNLTDSKGTCLYAEWEMNFTITYETTNQTNKTITIAVPDKATHDGSSCGDDRNSAKIMIQFGFAVSWAVNFTKEASHYSIHDIVLSYNTSDSTVFPGAVAKGVHTVKNPENFKVPLDVIFKCNSVLTYNLTPVVQKYWGIHLQAFVQNGTVSKNEQVCEEDQTPTTVAPIIHTTAPSTTTTLTPTSTPTPTPTPTPTVGNYSIRNGNTTCLLATMGLQLNITEEKVPFIFNINPATTNFTGSCQPQSAQLRLNNSQIKYLDFIFAVKNEKRFYLKEVNVYMYLANGSAFNISNKNLSFWDAPLGSSYMCNKEQVLSVSRAFQINTFNLKVQPFNVTKGQYSTAQDCSADEDNFLVPIAVGAALGGVLILVLLAYFIGLKRHHTGYEQF
	binds	V5-tagged Lamp2, wild type (protein, UniProt P17047 26-415, N-glycosylated) LIVNLTDSKGTCLYAEWEMNFTITYETTNQTNKTITIAVPDKATHDGSSCGDDRNSAKIMIQFGFAVSWAVNFTKEASHYSIHDIVLSYNTSDSTVFPGAVAKGVHTVKNPENFKVPLDVIFKCNSVLTYNLTPVVQKYWGIHLQAFVQNGTVSKNEQVCEEDQTPTTVAPIIHTTAPSTTTTLTPTSTPTPTPTPTPTVGNYSIRNGNTTCLLATMGLQLNITEEKVPFIFNINPATTNFTGSCQPQSAQLRLNNSQIKYLDFIFAVKNEKRFYLKEVNVYMYLANGSAFNISNKNLSFWDAPLGSSYMCNKEQVLSVSRAFQINTFNLKVQPFNVTKGQYSTAQDCSADEDNFLVPIAVGAALGGVLILVLLAYFIGLKRHHTGYEQF

— publication PMC7453023
